Laboratory results reported in PubChem BioAssay AID493014 (National Center for Advancing Translational Sciences (NCATS), 2011).
The list shows a part of the results. The main result of the screen is listed elsewhere. These columns were measured beside it and carry no call. Compounds called inactive in the main read-out are mostly missing here. The note in brackets gives the kind of curve behind each potency; many fits are weak.

Assay: qHTS Assay to Find Inhibitors of Chronic Active B-Cell Receptor Signaling
Conditions: ABC-DLBCL IkBa-CBG/CBR reporter, luminescence ratio (green luciferase fused to IkBa over red control in TMD8 lymphoma cells), 4 h
Summary of the method: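 Concentration-response series (up to 46 uM) were applied to TMD8 dual-reporter cells for 4 h at 37C with doxycycline. Green/red ratio, after filter-overlap correction, defined %Activity; red signal alone was normalised to basal cells and zero luminescence.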

[1] = measured here: CBR red luminescence, cell number

Compound	AC50 [1]	AC50 (measured here: IkBa-CBG green luminescence)
C[C@H](CO)N1C[C@H](C)[C@@H](CN(C)C(=O)Nc2ccc(C(F)(F)F)cc2)Oc2ccc(NC(=O)c3ccncc3)cc2C1=O	9.2 µM [rising, partial curve]	–
O=C(O)c1cccc(NC(=S)N/N=C/c2cccc(O)c2)c1	11.2 µM [falling, partial curve, poor fit]	–
O=C(COc1cccc2c1CCNC2=O)Nc1cccc(C(F)(F)F)c1	13 µM [falling, partial curve, poor fit]	–
CCOC(=O)Cc1nnc(NC(=O)CSc2nnc3c4ccccc4n(C(C)C)c3n2)s1	3.26 µM [falling, full curve]	2.59 µM [rising, partial curve, poor fit]
COc1cc(C2CC(=O)Oc3cc(OC)c(OC)c(OC)c32)cc(OC)c1OC (configuration not stated)	1.03 µM [rising, full curve, poor fit]	–
Cc1c(OCC(=O)NCCCN2CCOCC2)ccc2c(-c3ccccc3)cc(=O)oc12	35.5 µM [rising, single point]	–
CCOCC(=O)Nc1nnc(C2CCCCC2)s1	29.1 µM [falling, single point]	–
O=C(NC1CCCC1)c1cccc(Cn2cc([N+](=O)[O-])cn2)c1	11.6 µM [rising, partial curve, poor fit]	–
O=c1oc2cc(Br)ccc2n1Cc1ccccc1	35.5 µM [rising, single point]	–
O=C(COC(=O)c1ccccc1[N+](=O)[O-])c1ccc2c(c1)OCO2	1.64 µM [rising, partial curve]	–
Cc1nc(C)c(-c2ccc(SCc3cccc(F)c3)nn2)s1	5.62 µM [falling, partial curve, poor fit]	–
COc1ccc(NS(=O)(=O)c2cccc(C(=O)N(C)Cc3ccc(SC)cc3)c2)cc1	29.1 µM [falling, single point]	–
Cc1cccc(CS(=O)(=O)CC2Nc3ccc(C(=O)NCc4ccccc4Cl)cc3NC2=O)c1 (configuration not stated)	3.16 µM [falling, partial curve, poor fit]	–
COc1cccc2sc(N(CCCN(C)C)C(=O)c3ccc(S(=O)(=O)N4CCCc5ccccc54)cc3)nc12	35.5 µM [falling, single point]	–
COC(=O)c1ccccc1NC(=O)CSc1nnc(-c2cccnc2)n1C	2.91 µM [falling, partial curve, poor fit]	–
Cc1ccccc1/C=N/n1c(COc2ccccc2)n[nH]c1=S	15.8 µM [rising, partial curve, poor fit]	–

Part of the list above, bar-delimited.
Compound | AC50 [1] | AC50 (measured here: IkBa-CBG green luminescence)
O=c1oc2cc(Br)ccc2n1Cc1ccccc1 | 35.5 µM [rising, single point] | –
COc1ccc(NS(=O)(=O)c2cccc(C(=O)N(C)Cc3ccc(SC)cc3)c2)cc1 | 29.1 µM [falling, single point] | –
COc1cccc2sc(N(CCCN(C)C)C(=O)c3ccc(S(=O)(=O)N4CCCc5ccccc54)cc3)nc12 | 35.5 µM [falling, single point] | –
